{
  "source": "patent US10004253B1",
  "about": "“Method for increasing the health condition of crustaceans in aquaculture, survival rate and pigmentation” (priority 2017, dated 2018)",
  "system": "P. monodon shrimp",
  "assay": "Total pigment and Astaxanthin enantiomers deposited, commercial ponds, Example 7",
  "assay_type": "in vivo",
  "conditions": "feed with 60 ppm; HPLC of dicamphanates",
  "procedure": "The concentration of total pigment in crustacean specimens extract was carried out by UV/VIS spectrophotometric methods measurement absorbance at 470 nm (A 1%=2100 in Hexane).\nThe Astaxanthin enantiometers deposited by the crustaceans specimens, or from its different organs, were quantified by HPLC after derivatization into the corresponding dicamphanates (Vecchi and Muller 1979).\n7. —Comparison of the different Astaxanthin enantiomers deposited by P. monodon that were given the following three different diets: commercial feed as control; commercial feed containing 120 ppm of Lutein or Zeaxanthin Long Chain Diesters Concentrate; and commercial feed that contained 60 ppm of synthetic Astaxanthin (Carophyll Pink).\nAn evaluation was carried on a commercial operation to determine the effect of feeding P. monodon shrimp with the same commercial feed that contained:\nThe specimens were seeded at 30/m^2, pl 7, in aerated and lined ponds. The ponds sizes were 0.25 Ha each.\nAt three grams weight, the ponds were sampled, the specimens were lyophillized and the dehydrated samples were ground and analyzed.\nThe concentration of total pigment in the crustacean specimens extract was carried out by UV/Vis spectrophotometric methods measurement absorbance at 470 nm (A 1%=2100 in hexane).\nThe analysis of Astaxanthin R/S enantiomers deposited by the crustacean specimens, were quantified by HPLC after derivatization into the corresponding dicamphanates (Vecchi and Muller 1979), in order to differentiate the Astaxanthin enantiomers.",
  "data": [
    {"smiles": "CC1=C(/C=C/C(C)=C/C=C/C(C)=C/C=C/C=C(C)/C=C/C=C(C)/C=C/C2=C(C)C(=O)[C@@H](O)CC2(C)C)C(C)(C)C[C@H](O)C1=O", "note": "[ROCHE Astaxanthin, Astaxanthin]", "values": [
      {"measurement": "3R,3'R Astaxanthin (Cis+Trans) in deposited Astaxanthin", "value": 15.1, "unit": "%"},
      {"measurement": "3R,3'S Meso-Astaxanthin (Cis+Trans) in deposited Astaxanthin", "value": 37.6, "unit": "%"},
      {"measurement": "3S,3'S Astaxanthin (Cis+Trans) in deposited Astaxanthin", "value": 47.3, "unit": "%"}
    ]}
  ]
}
